Not every detail of the peptide structures is certain; ends, links or a residue may be inferred.
Test system: HSV-2
Assay: Inhibition of Herpes Simplex Virus (HSV-2) replication in cell culture
Format: cell-based, HSV-2 strain HG-52
Description: Inhibition of Herpes Simplex Virus (HSV-2). Replication in Cell Culture
BHK-21/C13 cells (ATCC CCL 10) are incubated for two days in 150 cm^2 T-flasks (1.5×10^6 cells/flask) with alpha-MEM medium (Gibco Canada Inc., Burlington, Ontario, Canada) supplemented with 8% (v/v) fetal bovine serum (FBS, Gibco Canada Inc.). The cells are trypsinized and then transferred to fresh media in a 24 well plate to give 2.5×10^5 cells in 750 μL of media per well. The cells are incubated at 37° for a period of 6 h to allow them to adhere to the plate. Thereafter, the cells are washed once with 500 μL of alpha-MEM supplemented with 0.5% (v/v) FBS and then incubated with 750 μL of the see media (low serum) for 3 days. After this period of serum starvation, the low serum medium is removed and the cells are incubated in 500 μL of BBMT for 2 to 3 hours. {BBMT medium is described by P. Brazeau et al., Proc. Natl. Acad. Sci. USA, 79, 7909 (1982).} Thereafter, the cells are infected with HSV-2 (multiplicity of infection=0.02 PFU/cell) in 100 μL of BBMT medium. […]
On completion of the above 2 hour incubation of the BHK-21/C13 cells, the media is replaced with alpha-MEM medium supplemented with 3% (v/v) FBS. The cells are now ready to be infected with the various sample dilutions of virus. […]

Compound | EC50 (Table II, BHK-21/C13 cells, 29 h incubation, 50% inhibition of virus replication) | EC50 (Table IV, cell culture assay of example 11)
CCCC1(NC(=O)N[C@H](C(=O)C[C@@H](CC(=O)C(C)(C)C)C(=O)N[C@H](C(=O)NCC(C)(C)C)C2(C(=O)O)CCCC2)C(C)(C)C)CCCC1 [(1--propylcyclopentyl)aminocarbonyl-Tbg--CH2 --(R)-CH(CH2 C(O)CMe3)C(O)--Asp(cyPn)--NHCH2 CMe3] | 40 µM | –
CCCC(CC)(CCC)NC(=O)N[C@H](C(=O)C[C@@H](CC(=O)C(C)(C)C)C(=O)N[C@H](C(=O)NCC(C)(C)C)C1(C(=O)O)CCCC1)C(C)(C)C [EtPr2 CNHC(O), NHCH2 CMe3] | – | 16 µM

Source: patent US5574015A, “Isosteric antiherpes peptide derivatives” (priority 1994, dated 1996)
